Results: PubChem BioAssay AID588525 (Broad Institute, 2011)
The shares of active, inactive and inconclusive entries below differ from those in the screen. Active and inactive are the calls of the source. How the calls were made is not given here.

target: DNA topoisomerase I (Yersinia pestis CO92) (UniProt A0A2S9PM60); experiment: Y. pestis Topo-I inhibitors, cleavage product readout, dose response, biochemical, Y. pestis CO92, cherry-pick (AID 588525); conditions: purified Y. pestis Topo-I, plate reader; at 38 µM (top of the series) unless noted

| Compound | activity (cleavage complex accumulation) |
| --- | --- |
| CCCCCCN1C[C@@H](n2cc(-c3ccc(F)cc3)nn2)[C@H](O)C[C@@H]1c1ccc(OC)cc1 | inconclusive: 17% |
| O=S(=O)(c1ccc(SCc2ccc(Cl)cc2)nc1)N1CCCC1 | inconclusive: 25.2% |
| Cc1ccc2nc(-c3ccc(SCC(=O)O)nc3)[nH]c2c1 | inconclusive: 12.9% |
| O=C(c1cc2c(s1)CCCC2)N1CCN(S(=O)(=O)c2ccccc2C(F)(F)F)CC1 | inconclusive: 8.74% |
| Cc1cccc(C(=O)N(Cc2nc3ccccc3c(=O)[nH]2)C2CCCCC2)c1 | inconclusive: 2.58% |
| O=C1NC(Cc2ccccc2)c2nc3ccccc3c(=O)n2-c2cc3ccccc3cc21 (centres undefined) | inconclusive: 124% |
| O=C(COC(=O)C1CCN(c2ccc(C(F)(F)F)cn2)CC1)c1ccccc1Cl | inconclusive: 16.1% |
| Cc1ccccc1OCC(=O)Nc1ccccc1N1CCCCC1 | inactive: 37% |
| Cc1cccc(CN2CCCN(Cc3ccc(Cl)cc3)S2(=O)=O)c1 | inconclusive: 22.3% |
| Cc1nnc(SCC(=O)N2c3ccccc3C(C)(c3ccccc3)CC2(C)C)s1 (centres undefined) | inconclusive: -2.18% |
| COC(=O)c1ccc(C2C(Oc3ccc(OC)cc3)C(=O)N2CCc2ccc(F)cc2)cc1 (centres undefined) | inactive: 19.9% [at 19.5 µM] |
| CC(Oc1ccc(F)cc1)C(=O)Nc1ccccc1N1CCCCC1 (centres undefined) | inconclusive: 20% |
| CC1CCN(c2oc(Cc3cccc4ccccc34)nc2C#N)CC1 | inactive: 22.8% |
| CCCCCCCCN1[C@@H](CC(C)=O)c2cc(C(F)(F)F)ccc2S1(=O)=O | inactive: 24.3% [at 10 µM] |
| Cc1ccc(-c2nnc(SCC#CCOC(=O)c3cccs3)o2)cc1 | inconclusive: 18.3% |
| COc1ccc(C2CC(c3ccccc3)=NN2C(=O)COC(=O)c2cccc(S(=O)(=O)N3CCOCC3)c2)cc1 (centres undefined) | inactive: 40.6% [at 10 µM] |
| CCOC(=O)Cn1c(S(=O)(=O)Cc2ccc(F)cc2)nc(-c2ccccc2)c1-c1ccccc1 | inconclusive: 26.6% |

| Compound | activity (cleavage complex accumulation) |
| --- | --- |
| O=C(Nc1ccccc1)N(CCN1CCOCC1)Cc1cccc(Cl)c1 | inconclusive: 17.2% |
| O=C(OCc1ccccc1)N1CCC2CC1c1c(Cl)cccc12 (centres undefined) | inactive: 34.9% |
| Cc1ccc(CSc2nc3c(c(N(C)C)n2)CCCC3)cc1 | inactive: 9.99% |
| C[C@H]1CCC(=O)N([C@H](CSc2ccccc2)Cc2ccccc2)CC1 | inactive: 12% |
| Cc1ccc(C)c(CSc2nnc([C@@H](N)C(C)C)o2)c1 | inconclusive: -3.68% |
| O=C(CCN1c2ccccc2Sc2ccccc21)OCC(=O)N1CCN(C(=O)c2ccco2)CC1 | inconclusive: -13.1% |
| CSc1ccccc1NC(=O)COC(=O)CCCOc1ccc(C)cc1 | inconclusive: 0.849% |
| CN(CC(=O)Nc1ccccc1-c1ccccc1)C1CCCCC1 | inconclusive: 9.99% |
| Cn1c(=O)[nH]c(=O)c2c1nc(N1CCCCCC1)n2Cc1cccc2ccccc12 | inconclusive: 139% |
| Clc1ccc(COC(Cn2ccnc2)c2ccc(Cl)cc2Cl)c(Cl)c1 (centres undefined) | inconclusive: -17.4% |
| CCOC(=O)Cc1csc(SCC(=O)Nc2cc(Cl)ccc2Oc2ccccc2)n1 | inconclusive: 19.5% |
| Cc1ccc(C(=O)c2sc3c(c2N)c(=O)[nH]c(=O)n3CCc2ccccc2)cc1 | inconclusive: 55.7% |
| CSc1ccc(CN(C)C(=O)c2cc3ccccc3o2)cc1 | inconclusive: 0.709% |
| COCCCn1c(-c2ccc(OC)cc2)cc(C(=O)NC2CCCCCCC2)c1C | inconclusive: -14.2% |
| COc1ccc(CN2CCN(C(=O)C3CC(=O)N(C4CCCCCC4)C3)CC2)c(OC)c1OC (centres undefined) | inconclusive: 11.2% |
| CCCCN1CC(COCc2ccccc2)Oc2cccc(F)c2S1(=O)=O (centres undefined) | inactive: 28.1% |
| O=C(COc1c(Cl)cccc1Cl)Nc1ccccc1N1CCCC1 | inactive: 16.1% |

As entered above.
For activity (cleavage complex accumulation), COCCCn1c(-c2ccc(OC)cc2)cc(C(=O)NC2CCCCCCC2)c1C is entered as inconclusive: -14.2%
For activity (cleavage complex accumulation), Cc1nnc(SCC(=O)N2c3ccccc3C(C)(c3ccccc3)CC2(C)C)s1 (centres undefined) is entered as inconclusive: -2.18%
